This note sets out measurements from US20250283871A1, “COMPOSITIONS AND METHODS FOR MODULATING THE INTERACTION BETWEEN SS18-SSX FUSION ONCOPROTEIN AND NUCLEOSOMES” (Dana-Farber Cancer Institute, Inc., priority 2020, published 2025).

This data set deals with BAF complex subunits and histone proteins. Description: Mass spectrometry proteomics of purified HA-SS18 WT and HA-SS18-SSX1 complexes (Tables 5A-5E). Further details: species or system human. The settings on record: for Total / Unique: HA-SS18SSX1_CHR_peptides; for Total: total peptides of the identified protein; for Unique: unique peptides of the identified protein.
Setting [1] is: HA-SS18WT_CHR_peptides: protein identified in HA-SS18 WT BAF complex purification from nuclease-treated solubilized chromatin (CHR), HEK-293T.
Setting [2] is: HA-SS18SSX1 purification, NE (soluble nuclear extract) fraction, HEK-293T, peptides per identified protein.
The mark [3] stands for this setting: HA-SS18WT_NE_peptides: HA-SS18 WT complexes purified from nuclear extract (NE), HEK-293T, label = protein identified (Gene Symbol).
[4] abbreviates: HA-SS18SSX1_NE_peptides: protein co-purified with HA-SS18-SSX1 BAF complexes from soluble nuclear extract (NE), HEK-293T cells.
The mark [5] stands for this setting: HA-SS18WT_NE_peptides: proteins co-purified with HA-SS18 WT from nuclear extract (NE), HEK-293T.

B1: MFAP1 (protein, UniProt P55081 2-439, looked up)
Microfibrillar-associated …: SVPSALMKQPPIQSTAGAVPVRNEKGEISMEKVKVKRYVSGKRPDYAPMESSDEEDEEFQFIKKAKEQEAEPEEQEEDSSSDPRLRRLQNRISEDVEERLARHRKIVEPEVVGESDSEVEGDAWRMEREDSSEEEEEEIDDEEIERRRGMMRQRAQERKNEEMEVMEVEDEGRSGEESESESEYEEYTDSEDEMEPRLKPVFIRKKDRVTVQEREAEALKQKELEQEAKRMAEERRKYTLKIVEEETKKELEENKRSLAALDALNTDDENDEEEYEAWKVRELKRIKRDREDREALEKEKAEIERMRNLTEEERRAELRANGKVITNKAVKGKYKFLQKYYHRGAFFMDEDEEVYKRDFSAPTLEDHFNKTILPKVMQVKNFGRSGRTKYTHLVDQDTTSFDSAWGQESAQNTKFFKQKAAGVRDVFERPSAKKRKTT
Regarding B1, the Total is on record as 2 and the Unique was 2. Under setting [1], the “Total (total peptides)” value is 1 and the “Unique (unique peptides)” value turned out to be 1.

B2: PRPF38A (protein, UniProt Q8NAV1 1-312, looked up)
Pre-mRNA-splicing factor 38A: MANRTVKDAHSIHGTNPQYLVEKIIRTRIYESKYWKEECFGLTAELVVDKAMELRFVGGVYGGNIKPTPFLCLTLKMLQIQPEKDIIVEFIKNEDFKYVRMLGALYMRLTGTAIDCYKYLEPLYNDYRKIKSQNRNGEFELMHVDEFIDELLHSERVCDIILPRLQKRYVLEEAEQLEPRVSALEEDMDDVESSEEEEEEDEKLERVPSPDHRRRSYRDLDKPRRSPTLRYRRSRSRSPRRRSRSPKRRSPSPRRERHRSKSPRRHRSRSRDRRHRSRSKSPGHHRSHRHRSHSKSPERSKKSHKKSRRGNE
With B2, the Total worked out at 2 and the Unique is reported as 2.

B3: NUP85 (protein, UniProt Q9BW27 1-656, looked up)
Nuclear pore complex protein …: MEELDGEPTVTLIPGVNSKKNQMYFDWGPGEMLVCETSFNKKEKSEMVPSCPFIYIIRKDVDVYSQILRKLFNESHGIFLGLQRIDEELTGKSRKSQLVRVSKNYRSVIRACMEEMHQVAIAAKDPANGRQFSSQVSILSAMELIWNLCEILFIEVAPAGPLLLHLLDWVRLHVCEVDSLSADVLGSENPSKHDSFWNLVTILVLQGRLDEARQMLSKEADASPASAGICRIMGDLMRTMPILSPGNTQTLTELELKWQHWHEECERYLQDSTFATSPHLESLLKIMLGDEAALLEQKELLSNWYHFLVTRLLYSNPTVKPIDLHYYAQSSLDLFLGGESSPEPLDNILLAAFEFDIHQVIKECSIALSNWWFVAHLTDLLDHCKLLQSHNLYFGSNMREFLLLEYASGLFAHPSLWQLGVDYFDYCPELGRVSLELHIERIPLNTEQKALKVLRICEQRQMTEQVRSICKILAMKAVRNNRLGSALSWSIRAKDAAFATLVSDRFLRDYCERGCFSDLDLIDNLGPAMMLSDRLTFLGKYREFHRMYGEKRFADAASLLLSLMTSRIAPRSFWMTLLTDALPLLEQKQVIFSAEQTYELMRCLEDLTSRRPVHGESDTEQLQDDDIETTKVEMLRLSLARNLARAIIREGSLEGS
B3 returned a Total of 2 and a Unique of 2. Besides, under setting [2], the “Total (total peptides)” value was 4 and the “Unique (unique peptides)” value was found to be 4. Under setting [1], the “Total (total peptides)” value was found to be 1 and the “Unique (unique peptides)” value turned out to be 1. Under setting [3], the “Total (peptides)” value came to 5 and the “Unique (peptides)” value is on record as 5.

B4: MBD3 (protein, UniProt O95983 1-291, looked up)
Methyl-CpG-binding domain …: MERKRWECPALPQGWEREEVPRRSGLSAGHRDVFYYSPSGKKFRSKPQLARYLGGSMDLSTFDFRTGKMLMSKMNKSRQRVRYDSSNQVKGKPDLNTALPVRQTASIFKQPVTKITNHPSNKVKSDPQKAVDQPRQLFWEKKLSGLNAFDIAEELVKTMDLPKGLQGVGPGCTDETLLSAIASALHTSTMPITGQLSAAVEKNPGVWLNTTQPLCKAFMVTDEDIRKQEELVQQVRKRLEEALMADMLAHVEELARDGEAPLDKACAEDDDEEDEEEEEEEPDPDPEMEHV
B4 returned a Total of 2 and a Unique of 2. Under setting [1], the “Total (total peptides)” value was 2 and the “Unique (unique peptides)” value was determined as 2.

B5: CBX4 (protein, UniProt O00257 1-560, looked up)
E3 SUMO-protein ligase CBX4: MELPAVGEHVFAVESIEKKRIRKGRVEYLVKWRGWSPKYNTWEPEENILDPRLLIAFQNRERQEQLMGYRKRGPKPKPLVVQVPTFARRSNVLTGLQDSSTDNRAKLDLGAQGKGQGHQYELNSKKHHQYQPHSKERAGKPPPPGKSGKYYYQLNSKKHHPYQPDPKMYDLQYQGGHKEAPSPTCPDLGAKSHPPDKWAQGAGAKGYLGAVKPLAGAAGAPGKGSEKGPPNGMMPAPKEAVTGNGIGGKMKIVKNKNKNGRIVIVMSKYMENGMQAVKIKSGEVAEGEARSPSHKKRAADERHPPADRTFKKAAGAEEKKVEAPPKRREEEVSGVSDPQPQDAGSRKLSPTKEAFGEQPLQLTTKPDLLAWDPARNTHPPSHHPHPHPHHHHHHHHHHHHAVGLNLSHVRKRCLSETHGEREPCKKRLTARSISTPTCLGGSPAAERPADLPPAAALPQPEVILLDSDLDEPIDLRCVKTRSEAGEPPSSLQVKPETPASAAVAVAAAAAPTTTAEKPPAEAQDEPAESLSEFKPFFGNIIITDVTANCLTVTFKEYVTV
In turn, B5 gave a Total of 2 and a Unique of 2. Under setting [4], the “Total (peptides)” value is recorded as 2 and the “Unique (peptides)” value was found to be 2. Under setting [5], the “Total (peptides)” value amounted to 2 and the “Unique (peptides)” value is 2.

B6: ACTL6B (protein, UniProt O94805 1-426, looked up)
Actin-like protein 6B: MSGGVYGGDEVGALVFDIGSFSVRAGYAGEDCPKADFPTTVGLLAAEEGGGLELEGDKEKKGKIFHIDTNALHVPRDGAEVMSPLKNGMIEDWECFRAILDHTYSKHVKSEPNLHPVLMSEAPWNTRAKREKLTELMFEQYNIPAFFLCKTAVLTAFANGRSTGLVLDSGATHTTAIPVHDGYVLQQGIVKSPLAGDFISMQCRELFQEMAIDIIPPYMIAAKEPVREGAPPNWKKKEKLPQVSKSWHNYMCNEVIQDFQASVLQVSDSPYDEQVAAQMPTVHYEMPNGYNTDYGAERLRIPEGLFDPSNVKGLSGNTMLGVGHVVTTSIGMCDIDIRPGLYGSVIVTGGNTLLQGFTDRLNRELSQKTPPSMRLKLIASNSTMERKFSPWIGGSILASLGTFQQMWISKQEYEEGGKQCVERKCP
Turning to B6, the Total was found to be 2 and the Unique stood at 2. Under setting [4], the “Total (peptides)” value came to 2 and the “Unique (peptides)” value was determined as 1. Besides, under setting [1], the “Total (total peptides)” value amounted to 1 and the “Unique (unique peptides)” value was 1. For the same molecule, under setting [5], the “Total (peptides)” value is reported as 2 and the “Unique (peptides)” value amounted to 2.

B7: ADNP2 (protein, UniProt Q6IQ32 1-1131, looked up)
Activity-dependent …: MFQIPVENLDNIRKVRKKVKGILVDIGLDSCKELLKDLKGFDPGEKYFHNTSWGDVSLWEPSGKKVRYRTKPYCCGLCKYSTKVLTSFKNHLHRYHEDEIDQELVIPCPNCVFASQPKVVGRHFRMFHAPVRKVQNYTVNILGETKSSRSDVISFTCLKCNFSNTLYYSMKKHVLVAHFHYLINSYFGLRTEEMGEQPKTNDTVSIEKIPPPDKYYCKKCNANASSQDALMYHILTSDIHRDLENKLRSVISEHIKRTGLLKQTHIAPKPAAHLAAPANGSAPSAPAQPPCFHLALPQNSPSPAAGQPVTVAQGAPGSLTHSPPAAGQSHMTLVSSPLPVGQNSLTLQPPAPQPVFLSHGVPLHQSVNPPVLPLSQPVGPVNKSVGTSVLPINQTVRPGVLPLTQPVGPINRPVGPGVLPVSPSVTPGVLQAVSPGVLSVSRAVPSGVLPAGQMTPAGQMTPAGVIPGQTATSGVLPTGQMVQSGVLPVGQTAPSRVLPPGQTAPLRVISAGQVVPSGLLSPNQTVSSSAVVPVNQGVNSGVLQLSQPVVSGVLPVGQPVRPGVLQLNQTVGTNILPVNQPVRPGASQNTTFLTSGSILRQLIPTGKQVNGIPTYTLAPVSVTLPVPPGGLATVAPPQMPIQLLPSGAAAPMAGSMPGMPSPPVLVNAAQSVFVQASSSAADTNQVLKQAKQWKTCPVCNELFPSNVYQVHMEVAHKHSESKSGEKLEPEKLAACAPFLKWMREKTVRCLSCKCLVSEEELIHHLLMHGLGCLFCPCTFHDIKGLSEHSRNRHLGKKKLPMDYSNRGFQLDVDANGNLLFPHLDFITILPKEKLGEREVYLAILAGIHSKSLVPVYVKVRPQAEGTPGSTGKRVSTCPFCFGPFVTTEAYELHLKERHHIMPTVHTVLKSPAFKCIHCCGVYTGNMTLAAIAVHLVRCRSAPKDSSSDLQAQPGFIHNSELLLVSGEVMHDSSFSVKRKLPDGHLGAEDQRHGEEQPPILNADAAPGPEKVTSVVPFKRQRNESRTEGPIVKDEALQILALDPKKYEGRSYEEKKQFLKDYFHKKPYPSKKEIELLSSLFWVWKIDVASFFGKRRYICMKAIKNHKPSVLLGFDMSELKNVKHRLNFEYEP
As for B7, the Total worked out at 2 and the Unique turned out to be 2. Under setting [1], the “Total (total peptides)” value was determined as 1 and the “Unique (unique peptides)” value was found to be 1.
